{"source": "patent US20240352121A1", "about": "“LAIR-1 AGONISTIC ANTIBODIES AND METHODS OF USE THEREOF” (NEXTCURE, INC., priority 2023, published 2024)", "tested_on": "MV4-11 cells", "experiment": "MV4-11-luciferase cell-derived xenograft (CDX) model", "type": "in vivo, NSG mice", "conditions": "physiologically relevant doses; 10 mg/kg NC525, 100 mg/kg VEN, 0.5 mg/kg AZA", "description": "2e6 luciferase-expressing MV4-11-Luc or THP-1-Luc cells were suspended in sterile PBS and implanted into NSG mice via tail-vein injection. […] AML cell proliferation was monitored by weekly i.p. injection of D-Luciferin, immediately followed by IVIS bioluminescent imaging and quantification of luminescent signal. […] Imaging Perkin Elmore IVIS Lumina XRMS Series III.\nNSG mice were injected with 2e6 THP-1 luciferase cells or 2e6 MV4-11-luciferase cells via tail vein injection. Leukemia progression was quantified by i.p. injection of 100 μL bioluminescent substrate and IVIS imaging 8 minutes post injection. Progression was assessed weekly staring on Day 7 post-challenge. 10 mg/kg mab treatment was performed by i.p injection starting on day 8 and continuing twice a week until the end of the study. For the subcutaneous engraftment model, NSG mice were subcutaneously injected on the right flank with 5e6 MV4-11-Luc-LAIR-1^OE cells. Mice were treated by weekly i.p. injection of 10 mg/kg mAb. Tumor growth was measured by calipers twice weekly until end point.", "note": "For at least one compound, name, drawing or mass did not settle the structure."}
{"smiles": "CC1(C)CCC(CN2CCN(c3ccc(C(=O)NS(=O)(=O)c4ccc(NCC5CCOCC5)c([N+](=O)[O-])c4)c(Oc4cnc5[nH]ccc5c4)c3)CC2)=C(c2ccc(Cl)cc2)C1", "note": "[VEN, venetoclax, reference compound]", "values": [{"measurement": "MV4-11 in vivo growth, monotherapy", "result": "below the limit of detection"}]}
